Reference: PubChem BioAssay AID1259308 (NCATS, 2017)
The deposit covers about 59,000 reagents; this is an unselected part. About 1,510 of them (2.6%) were called active. 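Calls use total luciferase alone and ignore viability, so some active siRNAs may act by altering cell number.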 Entries without a mark were called inactive. Reagents against one gene are numbered here. Further read-outs or replicates are left out here.

- Test: 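Candidate targets for better recombinant protein yield in mammalian cells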 (primary screen)
- Cell system: human HEK293 embryonic kidney cells stably expressing firefly luciferase (HEK-CMV-Luc2-Hygro)
- Knock-down reagent: single siRNA against human genes, 0.8 pmol siRNA per well
- Time to read-out: 72 h
- Read-out: 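Reporter luminescence and viable-cell signal on separate replicate plates, given as percent of non-targeting control and median/MAD z-scores, plus per-cell luciferase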
- Reading the numbers: total luciferase, z-score: higher = more reporter protein produced
- Call rule: 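Active when the median/MAD z-score for overall luciferase is greater than 3; a gene was taken forward for validation with new siRNAs if at least two of its three siRNAs passed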
- Calls: active = raised luciferase; inactive = no rise

The opening 4 entries, to show the layout:
SYNE1 (GeneID 23345) #1
- total luciferase, z-score: -1.87

SYNE1 (GeneID 23345) #2
- total luciferase, z-score: 0.385

SYNE1 (GeneID 23345) #3
- total luciferase, z-score: -0.086

CILP2 (GeneID 148113) #1
- total luciferase, z-score: 2.44

The list itself, repeating the preview:
SYNE1 (GeneID 23345) #1
- total luciferase, z-score: -1.87

SYNE1 (GeneID 23345) #2
- total luciferase, z-score: 0.385

SYNE1 (GeneID 23345) #3
- total luciferase, z-score: -0.086

CILP2 (GeneID 148113) #1
- total luciferase, z-score: 2.44

CILP2 (GeneID 148113) #2
- total luciferase, z-score: 0.866

CILP2 (GeneID 148113) #3
- total luciferase, z-score: 2.79

CPB2 (GeneID 1361) #1
- total luciferase, z-score: -0.226

CPB2 (GeneID 1361) #2
- total luciferase, z-score: -0.898

CPB2 (GeneID 1361) #3
- total luciferase, z-score: -0.564

BRCC3 (GeneID 79184) #1
- total luciferase, z-score: -0.936

BRCC3 (GeneID 79184) #2
- total luciferase, z-score: -1.12

BRCC3 (GeneID 79184) #3
- total luciferase, z-score: 0.543

LAPTM4B (GeneID 55353) #1
- total luciferase, z-score: -0.516

LAPTM4B (GeneID 55353) #2
- total luciferase, z-score: 0.449

LAPTM4B (GeneID 55353) #3
- total luciferase, z-score: 2.51

RGS6 (GeneID 9628) #1
- total luciferase, z-score: 0.148

RGS6 (GeneID 9628) #2
- total luciferase, z-score: 0.261

RGS6 (GeneID 9628) #3
- total luciferase, z-score: 3.43 (active)

UBA5 (GeneID 79876) #1
- total luciferase, z-score: -0.318

UBA5 (GeneID 79876) #2
- total luciferase, z-score: 0.447

UBA5 (GeneID 79876) #3
- total luciferase, z-score: 0.214

CAND2 (GeneID 23066) #1
- total luciferase, z-score: -1.27

CAND2 (GeneID 23066) #2
- total luciferase, z-score: -0.117

CAND2 (GeneID 23066) #3
- total luciferase, z-score: -0.199

KCTD5 (GeneID 54442) #1
- total luciferase, z-score: 3.37 (active)

KCTD5 (GeneID 54442) #2
- total luciferase, z-score: -0.917

KCTD5 (GeneID 54442) #3
- total luciferase, z-score: 0.235

ERMAP (GeneID 114625) #1
- total luciferase, z-score: 0.463

ERMAP (GeneID 114625) #2
- total luciferase, z-score: -0.329

ERMAP (GeneID 114625) #3
- total luciferase, z-score: -0.127

STAT3 (GeneID 6774) #1
- total luciferase, z-score: -1.37

STAT3 (GeneID 6774) #2
- total luciferase, z-score: -0.21

STAT3 (GeneID 6774) #3
- total luciferase, z-score: 0.131
